For some of these results: Strings that start with PEPTIDE1 are HELM notation: dots part the residues, brackets hold end groups and non-standard residues.
Key:
[1] = general procedure: Fmoc solid-phase peptide synthesis; 2-chlorotrityl; DIPCI/HOBt; TBTU/HOBt/DIPEA for fragment coupling; conditions: whole synthesis, RP-HPLC, scale 1.310 mmol, trifluoroacetate salt
[2] = general procedure: Fmoc solid-phase peptide synthesis; 2-chlorotrityl carrier; aminomethylpolystyrene carrier; DIPCI/HOBt; TBTU/HOBt/DIPEA for fragment coupling; conditions: whole synthesis, trifluoroacetate salt; for final HPLC purity: RP-HPLC; for final HPLC purity / isolated yield: scale of the general procedure 0.345 mmol, 1.310 mmol, 0.395-1.185 mmol
[3] = general procedure: Fmoc solid-phase peptide synthesis; 2-chlorotrityl chloride; DIPCI/HOBt; TBTU/HOBt/DIPEA for fragment coupling; conditions: whole synthesis, trifluoroacetate salt
[4] = general procedure: Fmoc solid-phase peptide synthesis; aminomethylpolystyrene; DIPCI/HOBt; TBTU/HOBt/DIPEA for fragment coupling; conditions: whole synthesis, trifluoroacetate salt

Row | Substance | crude purity (method not given) [1] | final HPLC purity [2] | crude mass ([2]; scale 0.173 mmol) | isolated yield [2] | isolated mass [2] | crude mass [3] | crude mass [4]
1 | N^α-lauroyl-Gly-Pro-Hyp-Lys(Boc)-OH | >95% | – | – | – | – | – | –
2 | N^α-lauroyl-Gly-Pro-Hyp-Lys-Gly-Hyp-Hyp-Lys-NH2 | – | over 95% | 148.5 mg | 75.0% | 111.4 mg | – | –
3 | PEPTIDE1{[Lau].G.P.[Hyp].K.[am]}$$$$V2.0 | – | over 97% | – | 73.0% | 259.6 mg | 355.5 mg | –
4 | PEPTIDE1{[Lau].G.[Hyp].[Hyp].K.[am]}$$$$V2.0 | – | over 97% | – | 59.0% | 133.6 mg | – | 226.5 mg

From patent publication EP3925626A1 (priority 2020, dated 2021)
